# Results of single-concentration screens

Mtb glucose medium: 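Growth of Mycobacterium tuberculosis over 3 days (7H9 medium with glucose and tyloxapol); the read-out is not stated. Compounds at 50 µM. Direction is inferred from retests: higher values go with more growth inhibition. Size under these conditions: about 69,000 compounds, about 760 of them at 50% or above in at least one test.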
Mtb cholesterol medium: 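Whole-cell growth test on Mycobacterium tuberculosis, read after 4 days in a medium based on cholesterol and the lipid DPPC; the read-out is not stated. Compounds at 50 µM. The record gives no direction; compounds that gave an IC50 in retests scored well above the rest, so higher reads as more growth inhibition. Size under these conditions: about 69,000 compounds, about 370 of them at 50% or above in at least one test.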

Values are the deposited “Percent Effect”, in %. The controls that fix the scale are not given in the record; negative values are as filed. This is an unselected part of the compounds tested. Two or more numbers in one place are separate tests of the same structure; such repeats can differ widely.

{"compound": "CC(C)Cc1ncc2c(n1)CN(c1cc(NCCO)nc(N)n1)C2", "Mtb glucose medium": -68.92, "Mtb cholesterol medium": -31.79}
{"compound": "O=C(NCc1nnc2n1CCCCC2)N(CC1CCOC1)C1CC1", "stereo": "stereo not shown", "Mtb glucose medium": -33.75, "Mtb cholesterol medium": "-13.13 and -31.68"}
{"compound": "CCCc1nnc(NC2CCN(CCO)CC2)o1", "Mtb glucose medium": 7.314, "Mtb cholesterol medium": -3.722}
{"compound": "CC(C)Cc1cc(C(=O)NCC2CCCN(Cc3ccco3)C2)on1", "stereo": "stereo not shown", "Mtb glucose medium": -8.248, "Mtb cholesterol medium": -6.063}
{"compound": "COc1ccc(C(C)NCc2ccsc2)cc1Cn1cccn1", "stereo": "stereo not shown", "Mtb glucose medium": 0.6631, "Mtb cholesterol medium": "-0.9772 and -25.45"}
{"compound": "Cc1cc(NC(=O)N(CCC#N)CCCN(C)C)ccc1F", "Mtb glucose medium": -24.62, "Mtb cholesterol medium": -0.4255}
{"compound": "O=C(CC1CCCC1)N1CCCC(c2n[nH]c3nccnc23)C1", "stereo": "stereo not shown", "Mtb glucose medium": 17.3, "Mtb cholesterol medium": -23.38}
{"compound": "O=C(O)C(F)(F)F.[H][C@@]12OCCN(C(=O)C3CCC3)[C@@]1([H])CC[C@H]2OCCCn1cccn1", "Mtb glucose medium": -74.77, "Mtb cholesterol medium": -5.292}
{"compound": "NC(=O)[C@@H]1Cc2ccccc2CN1S(=O)(=O)N1CCCCCC1", "Mtb glucose medium": 11.96, "Mtb cholesterol medium": -4.652}
{"compound": "O=S(=O)(c1cccs1)N1CCCC(c2nccs2)C1", "stereo": "stereo not shown", "Mtb glucose medium": 23.56, "Mtb cholesterol medium": 4.685}
{"compound": "CC(O)CN1CCN(C(=O)c2cnc(OC(C)C)c(Cl)c2)CC1", "stereo": "stereo not shown", "Mtb glucose medium": -30.82, "Mtb cholesterol medium": -33.07}
{"compound": "COC(=O)C(NC(=O)C1CCC1)c1cc(F)ccc1F", "stereo": "stereo not shown", "Mtb glucose medium": 20.7, "Mtb cholesterol medium": -20.33}
{"compound": "O=C(c1cc2cc(I)ccc2[nH]1)N1CCC(Nc2cccnn2)CC1", "Mtb glucose medium": 36.75, "Mtb cholesterol medium": -13.78}
{"compound": "CN(C)c1ncccc1CNc1snc(Cl)c1C#N", "Mtb glucose medium": -20.66, "Mtb cholesterol medium": -21.74}
{"compound": "CC(=O)N1N=C(c2ccccc2)OC1C(=O)NCCc1ccc(O)cc1", "stereo": "stereo not shown", "Mtb glucose medium": -3.603, "Mtb cholesterol medium": -15.28}
{"compound": "Cc1noc(CN2Cc3ccccc3CC2c2nnc(C)o2)n1", "stereo": "stereo not shown", "Mtb glucose medium": 5.761, "Mtb cholesterol medium": -7.261}
{"compound": "Cc1cc(-c2ccccc2C(=O)O)nc(C2CCCN2S(C)(=O)=O)n1", "stereo": "stereo not shown", "Mtb glucose medium": 22.01, "Mtb cholesterol medium": 10.82}
{"compound": "O=C(NCc1nnc2n1CCC2)N1CCc2sccc2C1", "Mtb glucose medium": 8.02, "Mtb cholesterol medium": 2.14}
{"compound": "Cc1ccc(NC(=O)c2cc(S(=O)(=O)N3CCCCC3)c[nH]2)cc1F", "Mtb glucose medium": -0.2633, "Mtb cholesterol medium": -11.84}
{"compound": "[H][C@]12CCN(C(=O)c3ccoc3)[C@@]1([H])CC[C@H](COCc1ccccn1)O2", "Mtb glucose medium": -14.25, "Mtb cholesterol medium": -17.81}
{"compound": "[H][C@]12CCN(c3cc(C)ccn3)C[C@]1(COC)CC[C@@H](N1CCOCC1)C2", "Mtb glucose medium": -6.326, "Mtb cholesterol medium": -7.536}
{"compound": "CCn1c(CNC(=O)Nc2nc(C)c(C)o2)nc2ccccc21", "Mtb glucose medium": -15.67, "Mtb cholesterol medium": 4.774}
{"compound": "CC(CNC1CCN(Cc2ccncc2)CC1)c1ccc(F)cc1F", "stereo": "stereo not shown", "Mtb glucose medium": "-25.06 and 7.746", "Mtb cholesterol medium": 6.405}
{"compound": "CCCS(=O)(=O)CCN1CCOC(c2ccsc2)C1", "stereo": "stereo not shown", "Mtb glucose medium": "-7.174 and 2.562", "Mtb cholesterol medium": 2.076}
{"compound": "[H][C@@]12CCN(C(=O)C3CCSCC3)C[C@]1(COCC1CC1)CCO2", "Mtb glucose medium": "-9.231 and -37.44", "Mtb cholesterol medium": -4.934}
{"compound": "CCNc1nc(-c2cccnc2)c(-c2ccnc(N3CCCC3)n2)s1", "Mtb glucose medium": 27.49, "Mtb cholesterol medium": 16.17}
{"compound": "O=C(c1cccc2c1OCO2)N1CCCC(n2cccn2)C1", "stereo": "stereo not shown", "Mtb glucose medium": 9.42, "Mtb cholesterol medium": 2.172}
{"compound": "CC(C)c1nnc2n1CCN(C(=O)c1ccnc(-n3ccnc3)c1)C2", "Mtb glucose medium": 10.65, "Mtb cholesterol medium": -14.64}
{"compound": "CCC(=O)Nc1cccc(OCC(=O)N(C)Cc2nccn2CC)c1", "Mtb glucose medium": 4.342, "Mtb cholesterol medium": -0.4022}
{"compound": "Brc1cccc(-c2noc(C3COCCO3)n2)c1", "stereo": "stereo not shown", "Mtb glucose medium": 5.314, "Mtb cholesterol medium": "6.72 and 5.045"}
{"compound": "CCS(=O)(=O)c1ncc(CN2CCOCC2)n1CCCc1ccccc1", "Mtb glucose medium": 1.833, "Mtb cholesterol medium": 8.148}
{"compound": "Cn1cc(C(=O)NCCc2ccc(OC3CCCC3)cc2)ccc1=O", "Mtb glucose medium": -7.073, "Mtb cholesterol medium": -1.177}
{"compound": "CCCN(Cc1cccnc1)C(=O)C1CCNC1", "stereo": "stereo not shown", "Mtb glucose medium": "-24.56 and -6.012", "Mtb cholesterol medium": "-2.136 and -11.04"}
{"compound": "COc1cc(CNC(C)Cn2ccnc2)cc2c1OCCO2", "stereo": "stereo not shown", "Mtb glucose medium": -37.16, "Mtb cholesterol medium": -46.28}
{"compound": "CN(C)Cc1cc(-c2nccn2CCc2cccnc2)ccc1O", "Mtb glucose medium": -14.92, "Mtb cholesterol medium": 8.534}
{"compound": "O=C1OC2(CCN(C3CCCOC3)CC2)CN1CCc1ccccc1", "stereo": "stereo not shown", "Mtb glucose medium": -22, "Mtb cholesterol medium": -24.84}
{"compound": "CN(C)C(=O)c1nn(C)c2c1CN(Cc1ccc(F)cc1)C2.O=C(O)C(F)(F)F", "Mtb glucose medium": -14.74, "Mtb cholesterol medium": 4.952}
{"compound": "Cn1nc(Br)c2c(NCCS(N)(=O)=O)ncnc21", "Mtb glucose medium": -7.54, "Mtb cholesterol medium": -7.044}
{"compound": "COc1ccccc1N1CCC(N2CCOC(C(F)(F)F)C2)CC1", "stereo": "stereo not shown", "Mtb glucose medium": 3.887, "Mtb cholesterol medium": -15.58}

Repeated from the top, 3 entries:

{"compound": "CC(C)Cc1ncc2c(n1)CN(c1cc(NCCO)nc(N)n1)C2", "Mtb glucose medium": -68.92, "Mtb cholesterol medium": -31.79}
{"compound": "O=C(NCc1nnc2n1CCCCC2)N(CC1CCOC1)C1CC1", "stereo": "stereo not shown", "Mtb glucose medium": -33.75, "Mtb cholesterol medium": "-13.13 and -31.68"}
{"compound": "CCCc1nnc(NC2CCN(CCO)CC2)o1", "Mtb glucose medium": 7.314, "Mtb cholesterol medium": -3.722}

From ChEMBL document CHEMBL3988442, “University of Dundee, Small-Polar-MMV Screening Library” (2021).